From PubChem BioAssay AID250 (DTP/NCI, 2004)
The list is a part of this screen's results and no random one: it is rich in T/C values a quarter to a half above the control, in often repeated tests (any T/C) and in doses without a T/C. Further doses and runs are listed elsewhere. T/C: endpoint of the treated group in % of that of the vehicle group. Some entries give survivors of the animals treated and no T/C: the source holds a T/C of zero for them, seemingly a mark for toxic or unscored doses. Some survivor counts are full or nearly so, which does not show that the dose was tolerated: survival well below the control is almost never listed, so the zero probably covers shortened survival too. For part of these data: Survivors were counted at the toxicity check, usually on the fifth day, unless a day is given; later deaths do not show. Schedules are NCI's codes, read here as Q, the interval in days (D) or hours (H), X, the number of doses. Some schedule codes hold Z or #, which are not explained here. Some entries hold several experiments; the results are listed from low to high. For part of these data: For survival time, this PubChem deposit counts one and a half times the control or more as active, and values a quarter to a half above the control carry no call in these data; other NCI protocols may use other cut-offs. Some T/C values are followed by the survivors on the day toxicity was checked, most often the fifth; where none is given, no animal had died by that day. Numbered stars: 1 amine (or outer) side, 2 acyl side, 3 side chain; on linkers, the order of the positions; unused ones are H or OH. Bridge positions count the residues as written; N and C are the ends. Square brackets hold non-standard residues; d marks the D form. Peptide text beside a SMILES is read from it. I, II: the chains in the order shown. Actinocin(9to1) = Cc1c2oc3c(C)ccc(C(=O)[*:1])c3nc-2c(C(=O)[*:2])c(N)c1=O; aThr = C[C@H](O)[C@H](N)C(=O)O; NMeV = CN[C@H](C(=O)O)C(C)C; Sar = CNCC(=O)O

Tests used:
[1] = test system: BDF1 mice, L1210 leukemia sc, survival T/C; assay: NCI In Vivo Anticancer Drug Screen. Data for tumor model L1210 Leukemia (subcutaneous) in B6D2F1 (BDF1) mice; conditions: T/C endpoint: median survival time, higher T/C = longer survival
How it was run: (§1)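 Mice carrying transplanted tumors received test compounds, and survival or tumor size was measured. Values are the treated-group measurement (T) divided by that of the vehicle-treated control group (C).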

[2] = test system: BDF1 mice, L1210 leukemia sc; assay: as above; conditions: T/C endpoint: median survival time, higher T/C = longer survival
How it was run: as §1

[3] = dose: 108.0 mg/kg/injection, schedule: Q01DX Z (sc), vehicle: methylcellulose (MC)
[4] = dose: 180.0 mg/kg/injection, schedule: Q01DX Z (sc), vehicle: methylcellulose (MC)
[5] = dose: 2.8 mg/kg/injection, schedule: Q01DX Z (sc), vehicle: saline
[6] = dose: 4.7 mg/kg/injection, schedule: Q01DX Z (sc), vehicle: saline
[7] = dose: 8.4 mg/kg/injection, schedule: Q01DX Z (sc), vehicle: saline
[8] = dose: 13.0 mg/kg/injection, schedule: Q01DX Z (sc), vehicle: saline
[9] = dose: 14.0 mg/kg/injection, schedule: Q01DX Z (sc), vehicle: saline
[10] = dose: 22.0 mg/kg/injection, schedule: Q01DX Z (sc), vehicle: saline
[11] = dose: 23.0 mg/kg/injection, schedule: Q01DX Z (sc), vehicle: saline
[12] = dose: 500.0 mg/kg/injection, schedule: Q01DX Z (sc), vehicle: methylcellulose (MC)

Q: With `Cn1cnc([N+](=O)[O-])c1Sc1ncnc2nc[nH]c12` as the compound, how does the survivor count ([1]; dose: 3.0 mg/kg/injection, schedule: Q01DX Z (sc), vehicle: methylcellulose (MC)) read?
A: 4 of 10

Q: And the survivor count ([1]; dose: 5.0 mg/kg/injection, schedule: Q01DX Z (oral), vehicle: methylcellulose (MC))?
A: 6 of 10

Q: And the survivor count ([1]; dose: 8.4 mg/kg/injection, schedule: Q01DX Z (oral), vehicle: methylcellulose (MC))?
A: 6 of 10

Q: What about the survivor count ([1]; dose: 14.0 mg/kg/injection, schedule: Q01DX Z (oral), vehicle: methylcellulose (MC)) of the same compound?
A: 6 of 10

Q: And the survivor count ([1]; dose: 17.0 mg/kg/injection, schedule: Q01DX Z (sc), vehicle: methylcellulose (MC))?
A: 5 of 8

Q: What about the survivor count ([1]; dose: 23.0 mg/kg/injection, schedule: Q01DX Z (sc), vehicle: methylcellulose (MC)) of the same compound?
A: 5 of 10

Q: And the survivor count ([1]; dose: 39.0 mg/kg/injection, schedule: Q01DX Z (oral), vehicle: methylcellulose (MC))?
A: 1 of 10

Q: And the survivor count ([1]; dose: 39.0 mg/kg/injection, schedule: Q01DX Z (sc), vehicle: methylcellulose (MC))?
A: 1 of 10

Q: What about the survivor count ([1]; dose: 65.0 mg/kg/injection, schedule: Q01DX Z (oral), vehicle: methylcellulose (MC)) of the same compound?
A: 2 of 10

Q: And the survivor count ([1]; dose: 65.0 mg/kg/injection, schedule: Q01DX Z (sc), vehicle: methylcellulose (MC))?
A: 0 of 10

Q: And the survivor count ([1]; dose: 108.0 mg/kg/injection, schedule: Q01DX Z (oral), vehicle: methylcellulose (MC))?
A: 1 of 10 and 4 of 10

Q: And the survivor count [1, 3]?
A: 1 of 10

Q: What about the survivor count ([1]; dose: 180.0 mg/kg/injection, schedule: Q01DX Z (oral), vehicle: methylcellulose (MC)) of the same compound?
A: 3 of 10

Q: And the survivor count [1, 4]?
A: 1 of 10

Q: What about the survivor count ([1]; dose: 300.0 mg/kg/injection, schedule: Q01DX Z (oral), vehicle: methylcellulose (MC)) of the same compound?
A: 6 of 10

Q: And the survivor count ([1]; dose: 300.0 mg/kg/injection, schedule: Q01DX Z (sc), vehicle: methylcellulose (MC))?
A: 4 of 10

Q: What about the T/C ([2]; dose: 130.0 mg/kg/injection, schedule: Q01DX Z (sc), vehicle: methylcellulose (MC)) of the same compound?
A: 135 % of control [6 of 8 alive]

Q: And the T/C ([2]; dose: 216.0 mg/kg/injection, schedule: Q01DX Z (sc), vehicle: methylcellulose (MC))?
A: 125 % of control

Q: And the T/C ([2]; dose: 833.0 mg/kg/injection, schedule: Q01DX Z (oral), vehicle: methylcellulose (MC))?
A: 133 % of control

Q: What does the source list for `C=CC(O)CN1CC1` (stereo not given)?
A: survivor count ([1]; dose: 1.7 mg/kg/injection, schedule: Q01DX Z (sc), vehicle: saline): 2 of 10; survivor count ([1]; dose: 1.8 mg/kg/injection, schedule: Q01DX Z (sc), vehicle: saline): 6 of 10; survivor count [1, 5]: 3 of 10; survivor count [1, 6]: 3 of 10; survivor count ([1]; dose: 7.8 mg/kg/injection, schedule: Q01DX Z (sc), vehicle: saline): 7 of 10; survivor count [1, 7]: 6 of 10; survivor count [1, 8]: 7 of 10; survivor count [1, 9]: 5 of 10; survivor count [1, 10]: 7 of 10; survivor count [1, 11]: 3 of 10; survivor count ([1]; dose: 36.0 mg/kg/injection, schedule: Q01DX Z (sc), vehicle: saline): 5 of 10; survivor count ([1]; dose: 39.0 mg/kg/injection, schedule: Q01DX Z (sc), vehicle: saline): 5 of 10; survivor count ([1]; dose: 60.0 mg/kg/injection, schedule: Q01DX Z (sc), vehicle: saline): 0 of 10; survivor count ([1]; dose: 108.0 mg/kg/injection, schedule: Q01DX001 (sc), vehicle: saline): 2 of 8; survivor count ([1]; dose: 108.0 mg/kg/injection, schedule: Q## X Z (sc), vehicle: saline): 1 of 8; survivor count ([1]; dose: 180.0 mg/kg/injection, schedule: Q01DX001 (sc), vehicle: saline): 0 of 8; survivor count ([1]; dose: 300.0 mg/kg/injection, schedule: Q01DX001 (sc), vehicle: saline): 0 of 8; T/C ([2]; dose: 1.08 mg/kg/injection, schedule: Q01DX Z (sc), vehicle: saline): 125 % of control [8 of 10 alive]; T/C [2, 5]: 140 % of control; T/C ([2]; dose: 3.0 mg/kg/injection, schedule: Q01DX Z (sc), vehicle: saline): 140 % of control; T/C [2, 6]: 144 % of control; T/C [2, 7]: 145 % of control; T/C ([2]; dose: 8.4 mg/kg/injection, schedule: Q02DX Z (sc), vehicle: saline): 136 % of control; T/C [2, 8]: 133 and 145 % of control; T/C [2, 9]: 136 % of control; T/C [2, 10]: 133 % of control [9 of 10 alive]; T/C ([2]; dose: 23.0 mg/kg/injection, schedule: Q01DX001 (sc), vehicle: saline): 127 % of control; T/C [2, 11]: 127 % of control; T/C ([2]; dose: 39.0 mg/kg/injection, schedule: Q01DX001 (sc), vehicle: saline): 131 % of control; T/C ([2]; dose: 39.0 mg/kg/injection, schedule: Q02DX Z (sc), vehicle: saline): 127 % of control

Q: For `C[C@]12CCC(=O)C=C1CC[C@H]1[C@@H]3CC[C@](O)(C(=O)CO)[C@@]3(C)C[C@H](O)[C@@]12F`, which survivor count [1, 12] is on record?
A: 6 of 10

Q: What about the T/C [2, 3] of the same compound?
A: 125 % of control

Q: What about the T/C [2, 4] of the same compound?
A: 125 % of control

Q: And the T/C [2, 12]?
A: 125 % of control

Q: How did the survivor count ([1]; dose: 200.0 mg/kg/injection, schedule: Q01DX009 (sc), vehicle: other) turn out when `CN(N=O)C(=O)N[C@@H](C=O)[C@@H](O)[C@H](O)[C@H](O)CO` was run?
A: 1 of 10

Q: And the T/C ([2]; dose: 50.0 mg/kg/injection, schedule: Q01DX009 (sc), vehicle: other)?
A: 131 % of control [9 of 10 alive]

Q: What about the T/C ([2]; dose: 100.0 mg/kg/injection, schedule: Q01DX009 (sc), vehicle: other) of the same compound?
A: 128 % of control

Q: `Cc1c2oc3c(C)ccc(C(=O)N[C@@H]4C(=O)N[C@H](C(C)C)C(=O)N5CCC[C@H]5C(=O)N(C)CC(=O)N(C)[C@@H](C(C)C)C(=O)O[C@H]4C)c3nc-2c(C(=O)N[C@@H]2C(=O)N[C@H](C(C)C)C(=O)N3CCC[C@H]3C(=O)N(C)CC(=O)N(C)[C@@H](C(C)C)C(=O)O[C@H]2C)c(N)c1=O` (I: [aThr][dV]P[Sar][NMeV] / II: [aThr][dV]P[Sar][NMeV]; ester I:1-I:C, II:1-II:C; linker I:N-II:N via Actinocin(9to1)) was tested. Which survivor count ([1]; dose: 0.04 mg/kg/injection, schedule: Q01DX Z (sc), vehicle: saline) did it give?
A: 3 of 10

Q: And the survivor count ([1]; dose: 0.11 mg/kg/injection, schedule: Q01DX Z (sc), vehicle: saline)?
A: 4 of 10

Q: What about the T/C ([2]; dose: 0.19 mg/kg/injection, schedule: Q01DX Z (sc), vehicle: saline) of the same compound?
A: 140 % of control [9 of 10 alive]

Q: What about the T/C ([2]; dose: 0.31 mg/kg/injection, schedule: Q01DX Z (sc), vehicle: saline) of the same compound?
A: 130 % of control [8 of 10 alive]
